Results reported in patent US20260159583A1 (CHIA TAI TIANQING PHARMACEUTICAL GROUP, published 2026).
Results are given in words; binding and its absence hold for the method and conditions named. Some binding calls cover weakened binding; strength is not graded here.

Amino acid sequences for entries named in this document (tags omitted). A change or cut given only in a name is not applied to a line headed by its entry.
UniProt Q9NZD1: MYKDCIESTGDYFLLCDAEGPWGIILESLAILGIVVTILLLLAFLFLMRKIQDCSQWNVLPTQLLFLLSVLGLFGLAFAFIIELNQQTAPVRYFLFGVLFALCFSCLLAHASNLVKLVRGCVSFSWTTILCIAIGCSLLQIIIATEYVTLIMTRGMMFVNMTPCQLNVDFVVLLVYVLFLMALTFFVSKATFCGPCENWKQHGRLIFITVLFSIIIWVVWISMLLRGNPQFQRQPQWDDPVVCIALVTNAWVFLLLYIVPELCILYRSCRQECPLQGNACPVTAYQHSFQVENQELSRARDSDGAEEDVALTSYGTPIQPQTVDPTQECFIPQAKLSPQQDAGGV

What was measured:
human GPRC5D protein [1] = target: T1, human GPRC5D protein (human, UniProt Q9NZD1 1-345); assay: FACS on CHO-K1-hGPRC5D^hi cells, 4.1-3000 ng/mL
T1 construct: also called hGPRC5D

[2] = target: full-length monkey GPRC5D (monkey (cyno)); assay: FACS on CHO-K1-cynoGPRC5D cells, 4.6-10000 ng/ml
mouse GPRC5D (mouse) = target: T2, mouse GPRC5D (mouse) (UniProt Q9JIL6); assay: FACS on CHO-K1-murineGPRC5D cells, 4.6-10000 ng/ml
T2 sequence: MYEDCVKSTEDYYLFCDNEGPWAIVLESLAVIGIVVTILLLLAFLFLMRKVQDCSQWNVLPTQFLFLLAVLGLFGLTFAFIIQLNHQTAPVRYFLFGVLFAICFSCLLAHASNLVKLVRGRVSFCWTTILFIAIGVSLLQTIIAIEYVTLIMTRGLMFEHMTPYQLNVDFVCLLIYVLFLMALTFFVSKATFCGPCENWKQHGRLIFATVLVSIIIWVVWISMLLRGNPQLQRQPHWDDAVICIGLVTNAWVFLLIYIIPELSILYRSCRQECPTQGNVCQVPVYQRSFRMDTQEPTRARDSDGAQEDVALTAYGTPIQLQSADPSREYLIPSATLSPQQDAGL

human GPRC5D protein [3] = target: T1, human GPRC5D protein; assay: FACS on H929 and MM1S human myeloma cells, 4.1-1000 ng/ml
human GPRC5D protein [4] = target: T1, human GPRC5D protein; assay: FACS on CHO-K1-hGPRC5D^low cells, 4.1-3000 ng/mL; compared with BM-mAb

Measured: binding

B1: chimeric antibody Chi-128 (antibody, human IgG1, kappa, V domains shown)
VH: DVQLVESGGGLVQPGGSRKVSCAASGFTFSSFGMHWVRQAPEKGLEWVAYISRGSSTIYYADTVKGRFTISRDNPKNTLFLQMTSLRSEDTAMYYCARSGYGSSSYYFDYWGQGTTLTVSA
VL: ENVLTQSPAIMSASPREKVTMTCRASSSIRSSYLHWYQQKSGASPKLWIYSTSNLASGVPARFSGSGSGTSYSLTISSVEAEDAATYYCQQFSGYPLTFGGGTKLEIKR
binds: all assays above
